The values that follow come from the supplement of paper PMC5407854, “Inhibitor of ppGalNAc-T3-mediated O-glycosylation blocks cancer cell invasiveness and lowers FGF23 levels” (eLife, 2017).

The subject of one assay is ppGalNAc-T3 sensor. The assay can be described thus: T3 sensor activation Q score (MG/GFP ratio z-score vs DMSO controls) (SD units); higher = more sensor activation (inhibition of ppGalNAc-T3 glycosylation). The conditions noted are these: HEK293 sensor cells; 10 µM; 6 h. How it is done:
(§1)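 Cells were treated with compound at 10 uM for 6 h, then MG/GFP ratio was read by flow cytometry (10,000 cells per well, duplicate wells). Q = (R - R_neg)/SD_neg relative to DMSO vehicle controls; the signal rises when the glycosyltransferase is inhibited.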

A further assay concerns ppGalNAc-T2 sensor. The assay is described as follows: T2 sensor activation Q score (MG/GFP ratio z-score vs DMSO controls) (SD units); higher = more sensor activation (inhibition of ppGalNAc-T2 glycosylation). The conditions noted are these: HEK293 sensor cells; 10 µM; 6 h. The procedure:
as §1

This is one part of the list. Most values lie at the level of the controls, where differences are scatter.

Regarding `CC(=O)Nc1ccc(NC2=CC(=O)CC(C)(C)C2)cc1`, the “T3 sensor activation Q score” value in the assay on ppGalNAc-T3 sensor was -0.39. Further, the “T2 sensor activation Q score” value in the assay on ppGalNAc-T2 sensor was -0.635.

For `O=c1[nH]c2cccnc2n1-c1ccccc1`, in the assay on ppGalNAc-T3 sensor, the “T3 sensor activation Q score” value was -0.33. Moreover, the “T2 sensor activation Q score” value with ppGalNAc-T2 sensor was -0.575.

As for `O=C(O)CNC(=O)Cc1ccccc1`, in the assay on ppGalNAc-T3 sensor, the “T3 sensor activation Q score” value is -0.27. Also, the “T2 sensor activation Q score” value in the assay on ppGalNAc-T2 sensor was -0.54.

As for `Cc1nc(N)nc(OCC(F)(F)C(F)F)c1Br`, the “T3 sensor activation Q score” value in the assay on ppGalNAc-T3 sensor was 0.03. Besides, in the assay on ppGalNAc-T2 sensor, the “T2 sensor activation Q score” value was found to be 1.14.

With `O=C(O)C1CCCCN1C(=O)c1ccccc1` (configuration not stated), the “T3 sensor activation Q score” value with ppGalNAc-T3 sensor is -0.35. Also, in the assay on ppGalNAc-T2 sensor, the “T2 sensor activation Q score” value was -0.89.

Turning to `COc1cc(CN2CCN(c3ccccc3)CC2)c([N+](=O)[O-])cc1OC`, the “T3 sensor activation Q score” value in the assay with ppGalNAc-T3 sensor is -0.485. Moreover, in the assay with ppGalNAc-T2 sensor, the “T2 sensor activation Q score” value is -0.07.
